This is an account of results in patent US20220348650A1.

Amino acid sequences for entries named in this document (tags omitted). A change or cut given only in a name is not applied to a line headed by its entry.
UniProt Q495A1: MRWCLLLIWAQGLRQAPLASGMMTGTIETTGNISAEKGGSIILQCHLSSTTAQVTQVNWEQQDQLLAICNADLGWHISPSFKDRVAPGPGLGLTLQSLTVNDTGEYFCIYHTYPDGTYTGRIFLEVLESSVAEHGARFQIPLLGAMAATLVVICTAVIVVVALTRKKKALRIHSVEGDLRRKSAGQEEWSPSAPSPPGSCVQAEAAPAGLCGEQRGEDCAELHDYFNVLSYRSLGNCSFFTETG

These are yes or no findings as the source states them, for the method shown. Binding calls can cover weak binding; strength is not graded here.

For this assay, the target named is hTIGIT on the surface of T cells of B-hPD-1/hTIGIT double humanized mice (human extracellular region in the mouse genome (C57BL/6)) (UniProt Q495A1). The assay is described as follows: flow cytometry on spleen T cells, anti-human Fc FITC.

B1: h10D8OF (antibody, human IgG1, kappa, V domains shown)
VH: QVQLVESGGGVVQPGRSLRLDCKASGFTFSSYGMSWVRQAPGKGLELVATINSNGGSTYYPDSVKGRFTISRDNSKNTLFLQMNSLRAEDTAVYYCARLGTGTLGFAYWGQGTLVTVSS
VL: EIVMTQSPATLSLSPGERATLSCKASQDVKTAVSWYQQKPGQAPRLLIYWASTRATGIPARFSGSGSGTDYTLTISSLEPEDFAVYYCQQHYSTPWTFGQGTKVEIKR
With B1, the binding result was “binds”.
